Source: PubChem BioAssay AID743121 (NCATS, 2013)
The deposit covers about 26,000 reagents; shown is a part drawn at random. 167 of them (0.63%) were called active. 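Calls are per gene from RSA p-values that are not deposited; an individual active-marked siRNA can sensitise only weakly.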 The numbers tell different reagents against one gene apart. Not all columns of the deposit are shown.

- Assay: 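Partners whose loss is lethal together with topoisomerase I blockade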 (primary screen)
- Cell system: MDA-MB-231 cells, a human breast cancer line
- Knock-down reagent: single siRNA against human genes, 20 nM siRNA (0.8 pmol per well)
- Duration: 120 h (drug added 48 h after transfection, read 72 h later)
- Treatment: camptothecin 20 nM (about EC30) for 72 h; vehicle 0.1% DMSO in parallel plates
- Measurement: 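CellTiter-Glo ATP signal, scaled to control siRNA as percent viability; sensitisation given as log2 of untreated divided by camptothecin-treated viability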
- Reading the numbers: log2 vehicle/camptothecin viability: higher = stronger sensitisation to camptothecin
- Hit rule: 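Each gene scored by redundant siRNA activity (RSA) over its individual siRNA ratios; a gene is called active at p < 0.001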

no.	Gene	siRNA no.	log2 vehicle/camptothecin viability	Outcome
1	MAP7 (GeneID 9053)	1	-0.039	inactive
2	MAP7 (GeneID 9053)	2	-0.29	inactive
3	MAP7 (GeneID 9053)	3	-0.207	inactive
4	MAP7 (GeneID 9053)	4	-0.496	inactive
5	ILF2 (GeneID 3608)	1	0.26	inactive
6	ILF2 (GeneID 3608)	2	-0.162	inactive
7	ILF2 (GeneID 3608)	3	-0.67	inactive
8	ILF2 (GeneID 3608)	4	-0.165	inactive
9	SFTPB (GeneID 6439)	1	-0.452	inactive
10	SFTPB (GeneID 6439)	2	0.48	inactive
11	SFTPB (GeneID 6439)	3	-0.0735	inactive
12	SFTPB (GeneID 6439)	4	-0.462	inactive
13	ASIC1 (GeneID 41)	1	-0.525	inactive
14	ASIC1 (GeneID 41)	2	0.139	inactive
15	ASIC1 (GeneID 41)	3	-0.148	inactive
16	ASIC1 (GeneID 41)	4	-0.311	inactive

The list goes on (3 carried over from the part before).
no.	Gene	siRNA no.	log2 vehicle/camptothecin viability	Outcome
14	ASIC1 (GeneID 41)	2	0.139	inactive
15	ASIC1 (GeneID 41)	3	-0.148	inactive
16	ASIC1 (GeneID 41)	4	-0.311	inactive
17	CYB5D2 (GeneID 124936)	1	0.358	inactive
18	CYB5D2 (GeneID 124936)	2	-0.371	inactive
19	CYB5D2 (GeneID 124936)	3	0.117	inactive
20	FBXO15 (GeneID 201456)	1	-0.157	inactive
21	FBXO15 (GeneID 201456)	2	0.462	inactive
22	FBXO15 (GeneID 201456)	3	-0.471	inactive
23	FBXO15 (GeneID 201456)	4	-0.107	inactive
24	UPRT (GeneID 139596)	1	-0.207	inactive
25	UPRT (GeneID 139596)	2	-0.0502	inactive
26	UPRT (GeneID 139596)	3	-0.163	inactive
27	UPRT (GeneID 139596)	4	0.267	inactive
28	STYXL2 (GeneID 92235)	1	-0.0581	inactive
29	STYXL2 (GeneID 92235)	2	-0.148	inactive
30	STYXL2 (GeneID 92235)	3	-0.644	inactive
31	STYXL2 (GeneID 92235)	4	-0.691	inactive
